From US20090118188A1
Results are given in words; binding and its absence hold for the method and conditions named. Some binding calls cover weakened binding; strength is not graded here.

Chains of the proteins cited; added tags and fusions are not shown. Lines headed by an entry give the natural chain unless they say otherwise; changes in a name come on top.
UniProt P27037: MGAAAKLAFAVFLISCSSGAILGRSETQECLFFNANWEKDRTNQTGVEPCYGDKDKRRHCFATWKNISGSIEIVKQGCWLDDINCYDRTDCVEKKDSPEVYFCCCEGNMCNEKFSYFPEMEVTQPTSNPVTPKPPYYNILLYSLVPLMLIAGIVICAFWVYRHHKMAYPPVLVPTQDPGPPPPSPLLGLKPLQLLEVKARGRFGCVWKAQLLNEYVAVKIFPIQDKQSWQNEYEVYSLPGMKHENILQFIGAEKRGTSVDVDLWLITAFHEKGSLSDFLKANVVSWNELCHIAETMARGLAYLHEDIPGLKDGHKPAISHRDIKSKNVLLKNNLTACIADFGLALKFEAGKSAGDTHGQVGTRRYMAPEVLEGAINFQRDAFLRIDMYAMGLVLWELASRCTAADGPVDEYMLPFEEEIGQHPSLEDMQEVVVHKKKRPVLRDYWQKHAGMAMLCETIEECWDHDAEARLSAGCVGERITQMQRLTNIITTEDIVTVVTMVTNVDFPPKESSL

Target: T1, GDF-11 (UniProt O95390)
T1 sequence (looked up): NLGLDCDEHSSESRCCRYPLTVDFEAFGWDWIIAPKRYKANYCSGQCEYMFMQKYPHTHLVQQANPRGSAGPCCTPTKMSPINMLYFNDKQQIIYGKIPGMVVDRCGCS
Assay: Biacore SPR, ligand amine-coupled to CM5 chip

In the case of “ActRIIa-mFc (from UniProt P27037 21-135) (Fc fusion)”, the binding is reported as “binds”.
